No constants are given. Whether binding was seen depends on the method and setting. Some entries that bind do so weakly or less than the wild type.
What was measured:
[1] = target: Plasmodium actin I (UniProt Q8I4X0); assay: negative-stain electron microscopy; polymerized 16 h at 4°C in F-buffer at 20 uM, diluted in F buffer, 2% uranyl acetate; both purified
[2] = target: Plasmodium actin I (UniProt Q8I4X0); assay: pyrene-actin polymerization assay; spontaneous polymerization, pyrene-labelled and unlabelled actin 1:3, 0 to 7 uM, started with 1x F-buffer (4 mM MgCl2, 50 mM KCl, 10 mM EGTA pH 8), 20°C, 2 h; both purified

Sequences of proteins named here, by UniProt entry; tags and fusion partners are left off.
UniProt Q8I4X0: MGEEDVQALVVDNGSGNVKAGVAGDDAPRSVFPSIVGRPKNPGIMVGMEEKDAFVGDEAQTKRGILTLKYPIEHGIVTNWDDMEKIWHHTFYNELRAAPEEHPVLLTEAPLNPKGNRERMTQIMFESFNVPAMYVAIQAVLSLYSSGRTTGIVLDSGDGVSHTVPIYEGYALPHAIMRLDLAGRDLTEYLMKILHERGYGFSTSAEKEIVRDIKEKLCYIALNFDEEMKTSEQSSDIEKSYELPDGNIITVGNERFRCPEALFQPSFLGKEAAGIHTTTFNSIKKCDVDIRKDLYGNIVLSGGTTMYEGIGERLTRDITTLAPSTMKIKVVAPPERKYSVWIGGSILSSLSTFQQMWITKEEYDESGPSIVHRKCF

For “Plasmodium actin I (from UniProt Q8I4X0 1-376)”, the binding [1] was “binds” and the binding [2] was “binds”.

Reference: PMC10019781
